Results: the supplement of paper PMC5836539
± gives the standard deviation of the averaged measurements. This data set is noisy: repeats of one test often differ as much as different tests do.

Amino acid sequences for entries named in this document (tags omitted). A change or cut given only in a name is not applied to a line headed by its entry.
UniProt Q9BTL3: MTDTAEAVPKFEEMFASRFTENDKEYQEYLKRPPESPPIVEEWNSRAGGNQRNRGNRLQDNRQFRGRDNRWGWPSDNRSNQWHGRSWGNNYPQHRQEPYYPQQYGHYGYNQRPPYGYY
UniProt Q9BUR4: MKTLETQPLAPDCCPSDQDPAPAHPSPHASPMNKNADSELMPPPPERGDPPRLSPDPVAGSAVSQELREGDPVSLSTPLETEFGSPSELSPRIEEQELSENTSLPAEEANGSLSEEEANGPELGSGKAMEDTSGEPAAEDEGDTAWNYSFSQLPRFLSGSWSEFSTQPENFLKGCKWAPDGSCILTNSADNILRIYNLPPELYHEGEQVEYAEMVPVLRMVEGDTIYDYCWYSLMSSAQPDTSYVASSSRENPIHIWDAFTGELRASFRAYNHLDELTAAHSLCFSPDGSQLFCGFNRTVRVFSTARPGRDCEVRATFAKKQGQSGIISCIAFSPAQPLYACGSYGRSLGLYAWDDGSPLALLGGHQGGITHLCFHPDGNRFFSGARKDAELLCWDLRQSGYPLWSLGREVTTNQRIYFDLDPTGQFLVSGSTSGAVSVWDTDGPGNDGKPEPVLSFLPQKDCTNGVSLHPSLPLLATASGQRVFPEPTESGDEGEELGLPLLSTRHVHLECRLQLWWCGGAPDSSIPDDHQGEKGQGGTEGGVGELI
UniProt Q9BV36: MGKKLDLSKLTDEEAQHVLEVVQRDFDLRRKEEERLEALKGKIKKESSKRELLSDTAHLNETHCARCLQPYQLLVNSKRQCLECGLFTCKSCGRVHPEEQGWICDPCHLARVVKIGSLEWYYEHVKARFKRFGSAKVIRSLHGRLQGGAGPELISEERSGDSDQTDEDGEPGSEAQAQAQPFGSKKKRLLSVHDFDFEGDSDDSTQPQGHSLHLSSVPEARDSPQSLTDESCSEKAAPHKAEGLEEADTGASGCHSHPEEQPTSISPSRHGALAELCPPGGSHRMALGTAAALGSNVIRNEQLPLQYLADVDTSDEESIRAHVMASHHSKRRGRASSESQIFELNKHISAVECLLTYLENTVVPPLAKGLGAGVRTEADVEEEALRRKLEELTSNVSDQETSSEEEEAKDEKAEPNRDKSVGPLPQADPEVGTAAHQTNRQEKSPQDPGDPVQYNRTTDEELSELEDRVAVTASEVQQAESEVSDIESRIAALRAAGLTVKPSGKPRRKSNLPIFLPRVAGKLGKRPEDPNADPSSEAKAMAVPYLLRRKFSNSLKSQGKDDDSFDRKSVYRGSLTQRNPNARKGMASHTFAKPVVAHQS
UniProt Q9BVG4: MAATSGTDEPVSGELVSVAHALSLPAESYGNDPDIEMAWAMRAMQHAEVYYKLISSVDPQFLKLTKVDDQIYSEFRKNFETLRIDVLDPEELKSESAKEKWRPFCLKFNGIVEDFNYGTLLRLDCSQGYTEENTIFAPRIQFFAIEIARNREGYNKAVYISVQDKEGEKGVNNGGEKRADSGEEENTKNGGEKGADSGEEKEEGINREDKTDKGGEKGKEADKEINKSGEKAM
UniProt Q9NRY4: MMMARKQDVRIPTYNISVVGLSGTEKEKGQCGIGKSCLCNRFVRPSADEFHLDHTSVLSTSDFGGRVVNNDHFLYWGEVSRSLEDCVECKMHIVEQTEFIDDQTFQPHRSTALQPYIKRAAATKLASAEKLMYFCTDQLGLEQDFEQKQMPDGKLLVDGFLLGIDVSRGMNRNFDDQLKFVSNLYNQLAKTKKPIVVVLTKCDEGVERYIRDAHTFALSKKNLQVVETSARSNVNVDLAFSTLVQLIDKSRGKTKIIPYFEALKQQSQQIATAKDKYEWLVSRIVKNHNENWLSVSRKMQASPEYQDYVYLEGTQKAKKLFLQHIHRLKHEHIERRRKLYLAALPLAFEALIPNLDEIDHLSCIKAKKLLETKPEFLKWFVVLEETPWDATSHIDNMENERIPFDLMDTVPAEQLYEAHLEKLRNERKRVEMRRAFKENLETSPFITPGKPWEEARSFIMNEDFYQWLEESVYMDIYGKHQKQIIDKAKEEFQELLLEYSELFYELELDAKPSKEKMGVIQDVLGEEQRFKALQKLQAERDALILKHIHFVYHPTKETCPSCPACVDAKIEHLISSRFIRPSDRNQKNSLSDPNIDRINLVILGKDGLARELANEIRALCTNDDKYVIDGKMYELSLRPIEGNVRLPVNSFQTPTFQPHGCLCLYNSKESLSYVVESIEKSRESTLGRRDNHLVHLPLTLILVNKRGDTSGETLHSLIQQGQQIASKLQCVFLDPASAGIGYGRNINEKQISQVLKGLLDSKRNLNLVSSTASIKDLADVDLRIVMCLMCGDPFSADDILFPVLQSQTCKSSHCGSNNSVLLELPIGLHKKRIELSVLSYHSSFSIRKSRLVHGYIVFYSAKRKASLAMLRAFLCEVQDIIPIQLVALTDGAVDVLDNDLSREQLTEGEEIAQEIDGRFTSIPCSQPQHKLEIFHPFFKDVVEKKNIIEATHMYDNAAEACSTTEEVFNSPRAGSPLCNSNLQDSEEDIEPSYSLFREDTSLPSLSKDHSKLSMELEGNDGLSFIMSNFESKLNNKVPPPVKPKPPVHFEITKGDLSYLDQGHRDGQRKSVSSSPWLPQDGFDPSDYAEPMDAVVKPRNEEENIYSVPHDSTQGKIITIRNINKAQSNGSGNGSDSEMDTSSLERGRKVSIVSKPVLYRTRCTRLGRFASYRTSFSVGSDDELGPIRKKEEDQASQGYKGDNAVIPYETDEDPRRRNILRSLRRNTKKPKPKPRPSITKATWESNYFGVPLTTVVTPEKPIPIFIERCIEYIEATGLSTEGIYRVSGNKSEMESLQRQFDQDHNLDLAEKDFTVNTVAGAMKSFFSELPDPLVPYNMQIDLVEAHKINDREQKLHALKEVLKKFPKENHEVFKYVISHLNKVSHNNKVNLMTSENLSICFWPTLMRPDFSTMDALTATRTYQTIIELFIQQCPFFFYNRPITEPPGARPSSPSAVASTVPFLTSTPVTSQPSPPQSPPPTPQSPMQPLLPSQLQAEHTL
UniProt Q9NWV8, whole entry, looked up: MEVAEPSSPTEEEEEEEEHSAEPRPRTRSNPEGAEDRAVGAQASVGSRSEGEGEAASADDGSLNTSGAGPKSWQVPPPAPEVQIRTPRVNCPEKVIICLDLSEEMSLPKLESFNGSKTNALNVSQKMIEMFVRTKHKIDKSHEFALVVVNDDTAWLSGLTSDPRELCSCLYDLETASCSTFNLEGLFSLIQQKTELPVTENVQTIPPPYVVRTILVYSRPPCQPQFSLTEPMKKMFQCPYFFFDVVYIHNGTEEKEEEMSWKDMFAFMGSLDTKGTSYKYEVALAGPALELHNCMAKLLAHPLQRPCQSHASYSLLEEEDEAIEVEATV
UniProt Q9NYF8, whole entry, looked up: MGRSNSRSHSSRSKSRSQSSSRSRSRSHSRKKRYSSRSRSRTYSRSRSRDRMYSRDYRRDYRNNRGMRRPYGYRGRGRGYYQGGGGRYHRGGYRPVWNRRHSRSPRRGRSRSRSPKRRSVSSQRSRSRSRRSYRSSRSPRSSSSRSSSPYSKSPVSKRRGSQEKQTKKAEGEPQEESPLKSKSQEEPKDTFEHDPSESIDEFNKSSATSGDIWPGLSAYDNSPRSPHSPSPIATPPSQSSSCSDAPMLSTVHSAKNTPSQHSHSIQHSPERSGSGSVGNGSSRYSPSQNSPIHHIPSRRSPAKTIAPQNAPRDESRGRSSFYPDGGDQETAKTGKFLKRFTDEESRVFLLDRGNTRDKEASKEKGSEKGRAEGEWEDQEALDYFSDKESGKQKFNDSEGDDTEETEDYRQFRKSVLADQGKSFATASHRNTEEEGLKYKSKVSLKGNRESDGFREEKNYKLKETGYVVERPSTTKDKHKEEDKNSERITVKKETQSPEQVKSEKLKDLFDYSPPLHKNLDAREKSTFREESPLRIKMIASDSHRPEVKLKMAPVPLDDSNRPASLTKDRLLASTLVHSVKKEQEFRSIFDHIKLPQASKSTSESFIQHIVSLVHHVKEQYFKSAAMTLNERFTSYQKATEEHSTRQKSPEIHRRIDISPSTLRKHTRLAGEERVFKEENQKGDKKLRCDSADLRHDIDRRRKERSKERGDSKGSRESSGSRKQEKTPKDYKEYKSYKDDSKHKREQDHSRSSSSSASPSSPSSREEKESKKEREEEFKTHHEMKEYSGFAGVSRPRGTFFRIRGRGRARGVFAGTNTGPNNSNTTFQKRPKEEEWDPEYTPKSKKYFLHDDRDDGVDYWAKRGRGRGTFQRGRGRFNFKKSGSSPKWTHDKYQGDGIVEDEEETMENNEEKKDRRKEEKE
UniProt Q9P035: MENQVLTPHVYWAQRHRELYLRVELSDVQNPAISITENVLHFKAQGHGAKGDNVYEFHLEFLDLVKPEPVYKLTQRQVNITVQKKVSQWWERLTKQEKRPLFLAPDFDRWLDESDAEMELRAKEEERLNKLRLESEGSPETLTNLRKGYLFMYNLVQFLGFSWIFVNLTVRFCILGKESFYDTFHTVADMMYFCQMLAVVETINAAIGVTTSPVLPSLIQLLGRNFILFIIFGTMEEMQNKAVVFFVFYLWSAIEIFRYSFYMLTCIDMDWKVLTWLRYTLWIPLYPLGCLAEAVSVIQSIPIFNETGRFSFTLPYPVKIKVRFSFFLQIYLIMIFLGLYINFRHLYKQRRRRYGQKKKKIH
UniProt Q9UPQ9, whole entry, looked up: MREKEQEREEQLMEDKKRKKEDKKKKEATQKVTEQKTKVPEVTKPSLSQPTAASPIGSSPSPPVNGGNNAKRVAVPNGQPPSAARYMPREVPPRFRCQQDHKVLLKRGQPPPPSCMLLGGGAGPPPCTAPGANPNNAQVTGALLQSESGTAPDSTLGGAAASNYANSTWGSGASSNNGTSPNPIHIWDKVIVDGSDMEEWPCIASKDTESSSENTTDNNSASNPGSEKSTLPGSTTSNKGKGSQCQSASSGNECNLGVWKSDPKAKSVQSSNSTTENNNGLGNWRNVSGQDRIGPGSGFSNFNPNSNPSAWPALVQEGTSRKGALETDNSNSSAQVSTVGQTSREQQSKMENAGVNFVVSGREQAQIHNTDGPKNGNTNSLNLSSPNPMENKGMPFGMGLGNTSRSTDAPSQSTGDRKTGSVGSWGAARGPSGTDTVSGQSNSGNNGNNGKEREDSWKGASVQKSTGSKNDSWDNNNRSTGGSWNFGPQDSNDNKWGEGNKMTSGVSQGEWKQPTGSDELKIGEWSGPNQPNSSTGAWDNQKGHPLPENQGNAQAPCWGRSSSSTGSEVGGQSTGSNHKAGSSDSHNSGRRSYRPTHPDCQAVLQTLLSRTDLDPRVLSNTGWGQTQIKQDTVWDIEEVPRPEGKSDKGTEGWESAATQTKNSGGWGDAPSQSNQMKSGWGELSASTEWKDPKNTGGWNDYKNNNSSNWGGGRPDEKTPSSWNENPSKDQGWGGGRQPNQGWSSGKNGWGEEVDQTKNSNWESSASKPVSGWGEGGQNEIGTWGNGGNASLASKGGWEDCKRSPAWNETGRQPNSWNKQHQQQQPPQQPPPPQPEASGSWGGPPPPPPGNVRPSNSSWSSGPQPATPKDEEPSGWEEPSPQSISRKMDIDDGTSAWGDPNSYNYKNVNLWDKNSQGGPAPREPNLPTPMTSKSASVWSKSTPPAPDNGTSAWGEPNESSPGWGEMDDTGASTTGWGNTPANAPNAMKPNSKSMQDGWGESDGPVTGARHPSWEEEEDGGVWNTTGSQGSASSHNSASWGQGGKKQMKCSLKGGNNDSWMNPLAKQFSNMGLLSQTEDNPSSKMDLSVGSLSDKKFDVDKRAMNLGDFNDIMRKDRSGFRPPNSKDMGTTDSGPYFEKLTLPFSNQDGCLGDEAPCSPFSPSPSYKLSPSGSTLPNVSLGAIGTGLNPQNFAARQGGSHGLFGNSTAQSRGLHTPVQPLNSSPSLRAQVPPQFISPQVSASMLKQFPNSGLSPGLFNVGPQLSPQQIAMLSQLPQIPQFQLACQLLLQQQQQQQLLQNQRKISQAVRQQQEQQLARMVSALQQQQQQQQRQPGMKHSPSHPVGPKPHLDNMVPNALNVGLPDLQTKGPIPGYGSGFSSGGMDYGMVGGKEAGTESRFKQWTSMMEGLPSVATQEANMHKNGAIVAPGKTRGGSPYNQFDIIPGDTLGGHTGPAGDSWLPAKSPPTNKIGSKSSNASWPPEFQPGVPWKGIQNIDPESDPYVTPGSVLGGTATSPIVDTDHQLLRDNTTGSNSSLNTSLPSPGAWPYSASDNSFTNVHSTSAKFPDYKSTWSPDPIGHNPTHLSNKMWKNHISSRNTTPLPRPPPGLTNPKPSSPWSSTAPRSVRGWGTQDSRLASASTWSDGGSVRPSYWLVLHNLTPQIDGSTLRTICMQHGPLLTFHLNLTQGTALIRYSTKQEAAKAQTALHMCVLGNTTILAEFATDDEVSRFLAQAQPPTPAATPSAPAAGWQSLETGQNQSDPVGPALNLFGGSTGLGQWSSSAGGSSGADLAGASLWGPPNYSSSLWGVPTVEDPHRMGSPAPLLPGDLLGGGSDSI

Columns and labels:
[1] = compound: T1, CC[C@@H](C)Nc1cc(C(=O)N[C@H]2C[C@H]3CC[C@@H](C2)N3c2ccc(C(=O)C3CC3)cn2)c(C)cc1C(N)=O [XL888]; experiment: phosphopeptide melting temperature shift (XL888 minus DMSO); higher = stabilised by drug treatment; details: 100 µM; treatment time 2 h; layout: intact cells; SK-Mel 28
Procedure: (§1)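 Phospho-TPP in intact SK-Mel 28 cells treated with 100 uM XL888 or DMSO for 2 h, heated at 10 temperatures (37-67 C) for 3 min, soluble fraction TMT10plex-labelled and TiO2 phospho-enriched. Melting curves were fitted per phosphopeptide; the value is the melting point difference (drug minus vehicle) in each of two biological replicates.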

[2] = compound: T1, XL888; experiment: as above; details: 100 µM; treatment time 2 h; layout: intact cells; SK-Mel 24
Procedure: as §1, with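 “24” for “28”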

Row | Target | phosphopeptide melting temperature shift [1] [°C] | phosphopeptide melting temperature shift [2] [°C]
1 | UniProt Q7Z6E9-2_phosphosite_1294 (phosphosite position: 1294) | 2.29 | 0.215
2 | UniProt Q7Z6Z7-2_phosphosite_1907 (phosphosite position: 1907) | 1.49 ± 0.39 | 0.511
3 | UniProt Q08AD1-2_phosphosite_1121 (phosphosite position: 1121) | 2.53 ± 0.72 | 0.218
4 | UniProt Q8IUD2-4_phosphosite_21 (phosphosite position: 21) | 3.78 | -0.404
5 | UniProt Q8IWS0-5_phosphosite_121 (phosphosite position: 121) | -5.1 | 3.81
6 | UniProt Q8IZP0-2_phosphosite_178 (phosphosite position: 178) | 0.994 | 0.0735 ± 0.61
7 | UniProt Q8IZP0-2_phosphosite_220 (phosphosite position: 220) | -0.577 ± 0.31 | 0.204
8 | UniProt Q8ND56-2_phosphosite_183 (phosphosite position: 183) | -0.278 ± 0.14 | 0.183 ± 1
9 | UniProt Q8ND56-2_phosphosite_192 (phosphosite position: 192) | 0.581 ± 0.75 | 1.08 ± 0.9
10 | UniProt Q8ND56-2_phosphosite_216 (phosphosite position: 216) | 0.597 | -0.015 ± 0.73
11 | UniProt Q8NDI1-3_phosphosite_987 (phosphosite position: 987) | 1.55 | 0.276 ± 0.29
12 | UniProt Q8TDZ2-2_phosphosite_531 (phosphosite position: 531) | 1.69 ± 0.75 | 1.54 ± 1.8
13 | UniProt Q8WUA7-3_phosphosite_85 (phosphosite position: 85) | -0.225 ± 0.077 | 1.2 ± 0.49
14 | UniProt Q8WWM7-6_phosphosite_594 (phosphosite position: 594) | -0.315 ± 1.2 | -0.44
15 | UniProt Q8WYL5-4_phosphosite_585 (phosphosite position: 585) | -1.11 | -1.72
16 | UniProt Q8WYL5-4_phosphosite_625 (phosphosite position: 625) | 1.41 ± 2.3 | 0.357
17 | UniProt Q9BTA9-5_phosphosite_64 (phosphosite position: 64) | 0.534 ± 0.49 | 0.905
18 | UniProt Q9BTL3_phosphosite_36 (phosphosite position: 36) | 1.66 ± 1 | 1.6
19 | UniProt Q9BUR4_phosphosite_90 (phosphosite position: 90) | 0.681 ± 0.052 | 0.137
20 | UniProt Q9BV36_phosphosite_337 (phosphosite position: 337) | 1.3 ± 0.42 | 1.61
21 | UniProt Q9BVG4_phosphosite_181 (phosphosite position: 181) | 0.657 ± 0.54 | 1.43
22 | UniProt Q9BVG4_phosphosite_197 (phosphosite position: 197) | 1.28 ± 0.74 | 0.535
23 | UniProt Q9BZZ5-2_phosphosite_464 (phosphosite position: 464) | 0.0414 ± 0.67 | 0.378 ± 0.23
24 | UniProt Q9C0D5-2_phosphosite_164 (phosphosite position: 164) | 0.654 ± 1.7 | 0.559
25 | UniProt Q9C040_phosphosite_440 (phosphosite position: 440) | 0.611 ± 0.74 | 0.535 ± 0.28
26 | UniProt Q9GZR7-2_phosphosite_82 (phosphosite position: 82) | 2.36 | -0.546
27 | UniProt Q9H6Z4-3_phosphosite_40 (phosphosite position: 40) | 2.19 ± 0.35 | -1.19
28 | UniProt Q9H7D7-3_phosphosite_121 (phosphosite position: 121) | 2.04 ± 0.26 | 2.5

Row | Target | phosphopeptide melting temperature shift [1] [°C] | phosphopeptide melting temperature shift [2] [°C]
29 | UniProt Q9H116-4_phosphosite_122 (phosphosite position: 122) | -1.46 ± 0.56 | -3.82
30 | UniProt Q9NQ55-2_phosphosite_359 (phosphosite position: 359) | -0.107 | 0.522
31 | UniProt Q9NRY4_phosphosite_1179 (phosphosite position: 1179) | 0.0365 ± 1.1 | -0.877
32 | UniProt Q9NWV8-3_phosphosite_29 (phosphosite position: 29) | 1.52 ± 4.9 | 4.31
33 | UniProt Q9NXR1-2_phosphosite_306 (phosphosite position: 306) | -0.299 | 0.463
34 | UniProt Q9NY27-2_phosphosite_169 (phosphosite position: 169) | 1.79 ± 1.3 | 1.61
35 | UniProt Q9NYB9-2_phosphosite_177 (phosphosite position: 177) | 1.24 | 0.315 ± 0.57
36 | UniProt Q9NYF8-3_phosphosite_175 (phosphosite position: 175) | 1.98 ± 0.64 | 0.677
37 | UniProt Q9NYF8-3_phosphosite_266 (phosphosite position: 266) | 1.16 ± 2.6 | 2.71
38 | UniProt Q9NYF8-3_phosphosite_383 (phosphosite position: 383) | 0.867 ± 0.29 | 2.82
39 | UniProt Q9NYF8-3_phosphosite_494 (phosphosite position: 494) | -0.318 | 3.05
40 | UniProt Q9NYV4-2_phosphosite_423 (phosphosite position: 423) | 0.603 | 0.0247 ± 0.034
41 | UniProt Q9NZT2-2_phosphosite_315 (phosphosite position: 315) | -0.586 ± 0.16 | -0.00427
42 | UniProt Q9NZT2-2_phosphosite_378 (phosphosite position: 378) | 1.81 ± 2.7 | 0.563 ± 0.86
43 | UniProt Q9P1Y6-2_phosphosite_973 (phosphosite position: 973) | 0.997 | -7.173 ± 0.035
44 | UniProt Q9P035_phosphosite_114 (phosphosite position: 114) | -4.46 | 0.868 ± 0.14
45 | UniProt Q9UDY2-3_phosphosite_1136 (phosphosite position: 1136) | 1.47 ± 0.84 | -0.21 ± 0.99
46 | UniProt Q9UHD8-7_phosphosite_66 (phosphosite position: 66) | 2.53 ± 0.9 | 2.46 ± 0.18
47 | UniProt Q9UK59-2_phosphosite_282 (phosphosite position: 282) | 4.57 | 0.0181
48 | UniProt Q9UKE5-6_phosphosite_678 (phosphosite position: 678) | -0.418 ± 0.31 | -0.474
49 | UniProt Q9UKE5-6_phosphosite_740 (phosphosite position: 740) | 0.955 ± 1.4 | 0.485 ± 0.34
50 | UniProt Q9ULH7-2_phosphosite_26 (phosphosite position: 26) | 0.981 | -0.176
51 | UniProt Q9UMZ2-4_phosphosite_674 (phosphosite position: 674) | 0.221 ± 0.34 | 1.56
52 | UniProt Q9UN86-2_phosphosite_227 (phosphosite position: 227) | 1.08 ± 1.1 | -0.885
53 | UniProt Q9UPQ9-1_phosphosite_879 (phosphosite position: 879) | -1.12 | 0.33
54 | UniProt Q9UPU9-2_phosphosite_319 (phosphosite position: 319) | 2.57 ± 2.5 | -0.114
55 | UniProt Q9UQN3-2_phosphosite_158 (phosphosite position: 158) | 4.14 | 1 ± 0.8

Whole records, quoted from the list. Values in the order: phosphopeptide melting temperature shift [1] [°C]	phosphopeptide melting temperature shift [2] [°C]
UniProt Q9NYF8-3_phosphosite_175 (phosphosite position: 175) in the list: 1.98 ± 0.64	0.677
UniProt Q9UPU9-2_phosphosite_319 (phosphosite position: 319) in the list: 2.57 ± 2.5	-0.114
